# Percent effect of library compounds

Protein sequences, listed by entry. Tags and fused reporters are not part of them. Residues count along the entry.
UniProt Q8IDJ8, 1-583: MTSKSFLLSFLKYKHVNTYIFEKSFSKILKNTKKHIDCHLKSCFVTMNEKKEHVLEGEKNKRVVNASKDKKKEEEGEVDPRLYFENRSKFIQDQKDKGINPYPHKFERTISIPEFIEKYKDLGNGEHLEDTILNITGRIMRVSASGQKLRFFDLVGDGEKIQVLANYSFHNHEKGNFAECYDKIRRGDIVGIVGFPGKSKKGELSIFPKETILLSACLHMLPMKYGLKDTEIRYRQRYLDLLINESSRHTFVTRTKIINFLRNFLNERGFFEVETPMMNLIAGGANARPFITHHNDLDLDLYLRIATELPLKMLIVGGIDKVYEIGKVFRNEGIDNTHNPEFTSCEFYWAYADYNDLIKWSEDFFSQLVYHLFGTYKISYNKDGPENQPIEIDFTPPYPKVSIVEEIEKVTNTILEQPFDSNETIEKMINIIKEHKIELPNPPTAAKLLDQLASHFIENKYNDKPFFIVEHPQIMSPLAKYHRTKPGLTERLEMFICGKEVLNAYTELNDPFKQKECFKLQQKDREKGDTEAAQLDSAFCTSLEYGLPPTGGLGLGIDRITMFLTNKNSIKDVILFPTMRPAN

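Lysine-tRNA ligase, Plasmodium falciparum 3D7 (UniProt Q8IDJ8). Enzyme assay of the cytosolic lysyl-tRNA synthetase in 384-well plates, read by luminescence. Concentration: 30 µM. Higher reads as stronger inhibition, judged from the few compounds that gave an IC50. About 69,000 compounds were tested under these conditions; 0.071% (about 49) showed 50% or more at least once.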

Values are the deposited “Percent Effect”, in %. How 0% and 100% were set is not recorded. Most values in the screen are low, and negative values occur. Compounds were drawn at random from those tested, without regard to their results.

| structure | Percent Effect |
|---|---|
| `CC(C)N1CCN(C(=O)c2csc3nc(-c4ccc(Cl)cc4)cn23)CC1` | -0.904 |
| `Cc1nc(C)n(C2CCCN(C(=O)CCCn3ccnc3)C2)n1` (centres unmarked) | 0.1806 |
| `COc1cccc(Cc2nnc(SCCS(C)(=O)=O)o2)c1` | 1.807 |
| `CCc1cc(C(=O)N2CC[C@@H](c3ccc4c(c3)OCO4)[C@H](O)C2)ccn1` | -3.238 |
| `Cc1ccc(CC(=O)N2CC[C@@H]3NC(=O)CC[C@@H]32)cc1` | 1.707 |
| `Cc1nn(CCO)c(C)c1CNCc1cccnc1N(C)C` | -0.3473 |
| `CC(=O)N1CCN(Cn2nc(-c3ccc(F)cc3)oc2=O)CC1` | 7.014 |
| `COCCN1CCC2(CC1)CC(N1CCOCC1)c1cc(C)ccc12` (centres unmarked) | 3.092 |
| `O=C1NCCCCC1NCc1csc(-c2ccsc2)n1` (centres unmarked) | -1.963 |
| `CC(C)CNC(=O)c1nc2c(s1)CCN(C(=O)c1ccc(Cl)cc1)CC2` | 10 |
| `Cn1cc(N2CCC3(CCCN(Cc4ccc(F)cc4)C3)C2=O)cn1` (centres unmarked) | 1.302 |
| `Cc1cccc(CN2CCC(c3nnsc3S(C)(=O)=O)CC2)n1` | 1.687 |
| `COCCN1C(=O)CCC12CCN(C(=O)CNC(C)=O)CC2` | 3.683 |
| `O=C(c1ccnnc1)N1C[C@H]2CN(Cc3cccc(F)c3)C(=O)[C@H]2C1` | 3.53 |
| `Cc1occc1C(=O)NCC(=O)NCCCOc1ccc(F)cc1` | -0.1626 |
| `NCC1CCCCN1C(=O)Cc1cccc(Cl)c1` (centres unmarked) | 5.881 |
| `Cc1nc(C2CCN(C(=O)c3cscn3)CC2)c2sccn12` | 4.293 |
| `CC(=O)N1CCN(Cc2ccc(C(F)(F)F)c(F)c2)CC(O)C1` (centres unmarked) | 4.561 |
| `COC(=O)CC1CCCCN1CC(=O)NCCc1ccc(F)cc1` (centres unmarked) | -0.7766 |
| `CSCC[C@H](NC(=O)Cn1ccc2c(Br)cccc21)C(=O)O` | 5.164 |
| `CC(=O)NC1CCN(c2cnc(C3CCNCC3)cn2)CC1` | -1.144 |
| `COc1cccc2c1OCC(C(=O)N(C)CCCc1cnn(C)c1)C2` (centres unmarked) | 2.539 |
| `CC(C)OCCCNC(=O)CN1CCC(N2CCN(C)C2=O)CC1` | 1.742 |
| `CN(C)C(=O)c1ccc(-c2cccc3c2CCNC3)o1` | 6.439 |
| `Cc1nnc2n1CCN(Cc1nc3c(F)cccc3[nH]1)C2` | 5.762 |
| `Cc1nc(Cn2cc(I)cc(C)c2=O)oc1C` | 3.844 |
| `CCc1cc(CN(C)C(=O)c2cc(=O)[nH]c(=O)[nH]2)on1` | 2.644 |
| `COCC(C)N(C)C(=O)CCc1c(C)nc2c(C#N)cnn2c1C` (centres unmarked) | 3.113 |
| `O=C(Cc1ccccc1)N1CCC(c2nnc(-c3ccccn3)o2)CC1` | 0.7925 |
| `CCc1nc(CC(=O)Nc2cnn(CC3CCCO3)c2)cs1` (centres unmarked) | 10.15 |
| `CN(C)CCn1ccnc1C1CCCN(c2ncc(Cl)cc2F)C1` (centres unmarked) | 2.854 |
| `CC(C)CCN(C)C(=O)c1cc(CN2CCC(O)CC2)on1` | -0.2461 |
| `CC(=O)Cn1nc(-c2ccccc2F)ccc1=O` | -0.6191 |
| `CCc1ccc(S(=O)(=O)Nc2ccn(CC(=O)OC)n2)cc1` | 9.1 |
| `CCC(C)C(=O)NCc1cccc(N2CCCCC2=O)c1` (centres unmarked) | 2.408 |
| `CCOc1cc(C)nc(N2CCN(C(=O)C(C)NC(C)=O)CC2)n1` (centres unmarked) | 0.5009 |
| `CCc1[nH]ncc1C(=O)N1CCOC(c2nc(C)n[nH]2)C1` (centres unmarked) | -0.04709 |
| `CSc1nnc(CC2CCN(C(=O)COc3cccnc3)CC2)n1C` | 1.351 |
| `c1cncc(N2CCOCC3(CCCN(c4nncs4)C3)C2)c1` (centres unmarked) | 3.586 |
| `Cc1ccc2[nH]c(C(=O)N3CCC4(CC3)C(=O)NCCN4C)nc2c1` | 6.787 |
| `Cn1cc(CNC2CC3(CCN(CC4CC4)CC3)c3ccccc32)cn1` (centres unmarked) | 11.24 |
| `Cc1nc(CCCNC(=O)c2coc(CN3CCOCC3)c2)sc1C` | 4.122 |
| `N#CCCN(CC1CCOC1)S(=O)(=O)c1c(F)cccc1Cl` (centres unmarked) | 3.627 |
| `c1coc(-c2nc(CNC3CCC4(CCNCC4)CC3)no2)c1` | 2.81 |
| `COC(=O)c1ccc(NC(C)c2ccc3c(c2)NC(=O)CO3)nn1` (centres unmarked) | -0.02347 |
| `Cn1ccnc1-c1ccc(NCC2COCCO2)nn1` (centres unmarked) | -0.974 |
| `O=C(NS(=O)(=O)c1ccccc1C(F)(F)F)c1cccc2c1OCCO2` | -0.04752 |
| `COCC1CN(C(=O)C2=CCCC2)Cc2cnn(CC3CC3)c21` (centres unmarked) | -3.923 |
| `Clc1cccc(-n2cnnn2)c1N1CCOCC1` | 2.902 |
| `CC(NC(=O)Nc1ccc(OC2CCCC2)cc1)c1nc[nH]n1` (centres unmarked) | 0.812 |
| `Cc1noc(Cl)c1CCC(=O)N1CCC(CC(N)=O)CC1` | 6.439 |
| `CCN1CCN(C(=O)C2CC(=O)N(c3cnn(C(C)C)c3)C2)CC1` (centres unmarked) | 2.218 |
| `CN(C)CC(Nc1nc(N)nc2c1CCNCC2)c1ccccc1` (centres unmarked) | 5.025 |
| `O=C(c1ccncc1)N1CCCn2c(CN3CCCCC3)nnc2C1` | -4.469 |
| `CNc1ccc(Cl)cc1C(=O)N1CCC(Cn2cc(CN)nn2)CC1` | 2.781 |
| `O=C(CCn1c(=O)oc2ccccc21)NCC(O)c1ccc(F)c(F)c1` (centres unmarked) | 2.334 |
| `COCCn1ccc2c(C(=O)NC(C)C)cccc21` | 4.485 |

The first 6 entries again:

CC(C)N1CCN(C(=O)c2csc3nc(-c4ccc(Cl)cc4)cn23)CC1 gave -0.904%.
Cc1nc(C)n(C2CCCN(C(=O)CCCn3ccnc3)C2)n1 (centres unmarked) gave 0.1806%.
COc1cccc(Cc2nnc(SCCS(C)(=O)=O)o2)c1 gave 1.807%.
CCc1cc(C(=O)N2CC[C@@H](c3ccc4c(c3)OCO4)[C@H](O)C2)ccn1 gave -3.238%.
Cc1ccc(CC(=O)N2CC[C@@H]3NC(=O)CC[C@@H]32)cc1 gave 1.707%.
Cc1nn(CCO)c(C)c1CNCc1cccnc1N(C)C gave -0.3473%.

Source: ChEMBL document CHEMBL3988442, “University of Dundee, Small-Polar-MMV Screening Library” (2021).